The values below come from publication PMC7819943, “Rice protein-binding microarrays: a tool to detect cis-acting elements near promoter regions in rice”.

By UniProt entry, the sequences of proteins in these tests, tags left out.
UniProt Q0JBA9, entry or part of it: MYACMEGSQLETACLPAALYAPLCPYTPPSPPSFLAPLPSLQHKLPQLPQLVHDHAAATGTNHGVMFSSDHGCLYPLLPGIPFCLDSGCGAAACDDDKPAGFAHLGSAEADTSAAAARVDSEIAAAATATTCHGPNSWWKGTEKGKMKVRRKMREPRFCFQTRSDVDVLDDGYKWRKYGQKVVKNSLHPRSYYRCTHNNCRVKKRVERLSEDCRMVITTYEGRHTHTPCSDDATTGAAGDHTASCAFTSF

The other results are listed elsewhere or left out.

The assay addresses OsWRKY34 (Oryza sativa, UniProt Q0JBA9 1-250). Briefly: protein-binding microarray (RPBM); PBS, 2% BSA, 51.3 ng/ul salmon testes DNA, 50 uM zinc acetate, 200 nM TF, 25 C, 1 h; high values mean tight binding. Conditions: protein: recombinant; tags: N-terminal polyhistidine and DsRed monomer fusion (pET32a); label: CyDye5-dUTP incorporated in the synthesized complementary strand; 3' TTTTT single-stranded linker to array surface; dsDNA, one strand shown. The method, boiled down: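 Using Ni–NTA, transcription factors fused N-terminally to polyhistidine and DsRed were purified after expression in E. coli BL21-CodonPlus. These were incubated at 200 nM with a blocked, double-stranded custom Agilent array for 1 h at 25 °C in a buffer containing 50 µM zinc acetate, and the array was washed. The binding signal is per-feature fluorescence intensity (arbitrary units) on an Axon 4000B scanner.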
“CTTTATTCTCGATGCTTAGCTTTTCTCCCCTGCTTTGACCCGGAGTCACCTAGTGCAG”: the binding signal was 9230 fluorescence intensity (a.u.).
Next, “AGAAACTTGTATGCCAATATGTGTCATGCGACCATCTCTGCGGAGTCACCTAGTGCAG”: 8300 fluorescence intensity (a.u.); “GAAATTCATTCCAGTCATGACGTGTCAGCTCGTAGAAATTCGGAGTCACCTAGTGCAG”: 8230 fluorescence intensity (a.u.).
As to “GGTGGTGGTGGTGGGCGACGTGGACTCCATCGGGCTGACGCGGAGTCACCTAGTGCAG”, the binding signal was 9440 fluorescence intensity (a.u.).
As for “ACCTAAAGCCGCTTTCTAACAGTCGCAAACTCGCATTAGCCGGAGTCACCTAGTGCAG”, the binding signal was 8040 fluorescence intensity (a.u.).
Turning to “CCCCAGCCCAGTTGGGCCCAAACTGTCCATTCCAGCCATCCGGAGTCACCTAGTGCAG”, the binding signal is 8330 fluorescence intensity (a.u.).
In the case of “TGCCGTCCCATAGTTAGGTTCCTGTCATATAGTATTTCTGCGGAGTCACCTAGTGCAG”, the binding signal is 8140 fluorescence intensity (a.u.).
Consider “GTGTTTTCGCATGGTTCTCTATTTTGACAAACGACGAAGCCGGAGTCACCTAGTGCAG”, for which the binding signal is 8780 fluorescence intensity (a.u.).
With “CTCGCCGTCCATCTCTCTTCATGTAATTCACGCTCCATGTCGGAGTCACCTAGTGCAG”, the binding signal was 12300 fluorescence intensity (a.u.).
“TCCTTCTTCAGCCCCGGCACGTCCGCCTTGAACACGTGCGCGGAGTCACCTAGTGCAG”: the binding signal is 11000 fluorescence intensity (a.u.).
The value for “ACTGCGGGAGACTAATCATCGTGTGCTTATCTTCTCTCAGCGGAGTCACCTAGTGCAG” was 8960 fluorescence intensity (a.u.); that for “ATTTCTAAATTGTATTTCTATATGGACTCTGTTTTTTCTTCGGAGTCACCTAGTGCAG” was 11100 fluorescence intensity (a.u.).
Next, “CGTTGCATTTATTAATTTACCTTTCTTCTTCTCACACAAGCGGAGTCACCTAGTGCAG”: 9150 fluorescence intensity (a.u.).
“CCATTCAGTTTTGCTATATAATTGTCGATAAATTTTCTTCCGGAGTCACCTAGTGCAG”: the binding signal was 8380 fluorescence intensity (a.u.).
Take “ATCCATTCTTTGTCTGGATTTAGGTGTATAGCTGCCTTTTCGGAGTCACCTAGTGCAG”: the binding signal is 8830 fluorescence intensity (a.u.).
As for “TCTTAGACGGTCCTGACTCGAGGCCCATATATATGCTGGGCGGAGTCACCTAGTGCAG”, the binding signal was 19900 fluorescence intensity (a.u.).
For the sequence “CACCGTCATATATCTATGCATGGTCAATTGCTGTTTCTTTCGGAGTCACCTAGTGCAG”, the binding signal was 10700 fluorescence intensity (a.u.).
The value for “GTTCAGCTCTACTTTTTCAGATGGAAAAAGATCTCTGCCACGGAGTCACCTAGTGCAG” was 8420 fluorescence intensity (a.u.).
On to “ACACTTGAAATACTTGGGCGGGTAGGATTGGGTCGGGCTCCGGAGTCACCTAGTGCAG”, for which the binding signal is 11900 fluorescence intensity (a.u.).
In the case of “TAGACCGCAGCATCTGCTTTTTGTATAATCTATTCTATTGCGGAGTCACCTAGTGCAG”, the binding signal was 9010 fluorescence intensity (a.u.).
Regarding “CCTCATCCCTTTCTCGTTCCTCTTTTCCTCTCTGTTCCTCCGGAGTCACCTAGTGCAG”, the binding signal is 8030 fluorescence intensity (a.u.).
The value for “CCTAGCTTCTTCTTGATCCACAGTTTGTTTTGTGCGTGCACGGAGTCACCTAGTGCAG” was 10300 fluorescence intensity (a.u.).
“AGCTCCTTGATCCGATACGATCTGTCTATTTATCTTGTTACGGAGTCACCTAGTGCAG”: the binding signal was 10500 fluorescence intensity (a.u.).
The value for “CTCCTCCGTCTTTCTCGCCTTTCGCCACCACCACCACCAACGGAGTCACCTAGTGCAG” was 9860 fluorescence intensity (a.u.).
With “AAGGGCAAGCTCACCCACCCTTTCTTTCTTCACAATTTCCCGGAGTCACCTAGTGCAG”, the binding signal was 9130 fluorescence intensity (a.u.).
With “CTACTCGCCGCCATTCTCGCATTCTCGCCTTCTCGCTCTCCGGAGTCACCTAGTGCAG”, the binding signal is 10700 fluorescence intensity (a.u.).
As to “TACATCCCATCCTCGCCGCGATTTCCTTCGCCGCCGCCGCCGGAGTCACCTAGTGCAG”, the binding signal is 11000 fluorescence intensity (a.u.).
The value for “TGTGGAGCCATGCTGGCTCTTTTTTTTTGCCACGTCACATCGGAGTCACCTAGTGCAG” was 8850 fluorescence intensity (a.u.); that for “AGCTCACACCACATGGCGCCATTTCTCCATTCTCTCCATGCGGAGTCACCTAGTGCAG” was 9810 fluorescence intensity (a.u.).
For “GTGATTTTTTGGCCGCACCAATTCCCTGTCCACGTTCGTGCGGAGTCACCTAGTGCAG”, the binding signal is 11000 fluorescence intensity (a.u.).
Regarding “TGCTTTTGTATTTTTTTTGCTGTGTATATATCATAAACTTCGGAGTCACCTAGTGCAG”, the binding signal was 8550 fluorescence intensity (a.u.).
Next, “GCATACTTGAGCATGTTCTACTTCTTCTAGCCATTGATTTCGGAGTCACCTAGTGCAG”: 10200 fluorescence intensity (a.u.); “TTTTCCTGTGTTTTGTAATCCTCTGTTTTACACTTCAATTCGGAGTCACCTAGTGCAG”: 10100 fluorescence intensity (a.u.); “GTATTCATGCATTTATCCACGAGTTCATCCTTATTGCTTTCGGAGTCACCTAGTGCAG”: 11200 fluorescence intensity (a.u.).
Consider “TTGTGTTCTCTCCGTAGTTTTTCTCAAAGGCATGTATATGCGGAGTCACCTAGTGCAG”, for which the binding signal was 8550 fluorescence intensity (a.u.).
In the case of “ATCGCGGTGCAGTAATCACACACTAATCACTAATCACTCACGGAGTCACCTAGTGCAG”, the binding signal was 8220 fluorescence intensity (a.u.).
On to “TTCGCCCGTGCCCGAGCATGCTGCCGCCCGTGCCCGAGCTCGGAGTCACCTAGTGCAG”, for which the binding signal was 9870 fluorescence intensity (a.u.).
Next, “GTAAGCAGTGACAGAATCCGCGCCGCCTCTCGGGGCGCCCCGGAGTCACCTAGTGCAG”: 8250 fluorescence intensity (a.u.); “CCACCGTCGCCGATTCCACCGCTGCCACGGACAACCCCGCCGGAGTCACCTAGTGCAG”: 8870 fluorescence intensity (a.u.).
Consider “AACCAAACCCAACCCGTCCACTGCTCCCGTTTTATAATCCCGGAGTCACCTAGTGCAG”, for which the binding signal is 9470 fluorescence intensity (a.u.).
Next, “TGTAGGAGAACATCCCCACCTGCCCCAACCATGTCGGCGCCGGAGTCACCTAGTGCAG”: 8720 fluorescence intensity (a.u.); “AAGTGGCCTCACTCATGCTCTAACTAACTGATCTCTTTCTCGGAGTCACCTAGTGCAG”: 8700 fluorescence intensity (a.u.).
As to “AAACCATTCGCCCGATTTGATCCACATCACCACTTTGGTTCGGAGTCACCTAGTGCAG”, the binding signal was 8820 fluorescence intensity (a.u.).
Next, “TCTATTTTTCTTTTGTTTTCTCTCTCTACTATTTCCTTCCCGGAGTCACCTAGTGCAG”: 8360 fluorescence intensity (a.u.); “TAAGCAGAGACCACAGACACACACACTTTATGCTTGGCTACGGAGTCACCTAGTGCAG”: 8690 fluorescence intensity (a.u.).
Turning to “TTAGGATTATACTGGCAGTATGTTTGATTTGTTTTCTTTCCGGAGTCACCTAGTGCAG”, the binding signal was 8280 fluorescence intensity (a.u.).
Turning to “CGGGTAGGGTGGGGTGGGGCGGGGTGGGGTTGGCGGCGACCGGAGTCACCTAGTGCAG”, the binding signal was 39500 fluorescence intensity (a.u.).
For “ATCTATTTTGTTGCACTCATTTTTTTTTTTTTGTCTATTCCGGAGTCACCTAGTGCAG”, the binding signal is 10200 fluorescence intensity (a.u.).
As for “AATCCACACCTATTGAGTAAGTACTCATTCCATCTATTTTCGGAGTCACCTAGTGCAG”, the binding signal was 8580 fluorescence intensity (a.u.).
For the sequence “GGTCATGCCTTACTACTGCACCTACTTCTTCACAGCAACCCGGAGTCACCTAGTGCAG”, the binding signal is 8630 fluorescence intensity (a.u.).
Next, “CCCAACTCCGACGCTTCCTCCGCCCCGGCGATCGCCGCCACGGAGTCACCTAGTGCAG”: 10300 fluorescence intensity (a.u.).
For “TTCCAAACGGGCCTGAACTCCGCCCATCCTACGCTTATTACGGAGTCACCTAGTGCAG”, the binding signal is 8440 fluorescence intensity (a.u.).
The value for “TTTTCTGTGTTGGGTCTGGGTCGGGCTGGGCCGGCGCTGGCGGAGTCACCTAGTGCAG” was 10700 fluorescence intensity (a.u.); that for “GCCTCTTGCATTTGCTGCCGCCGCCGCCCCGACCGCCGCACGGAGTCACCTAGTGCAG” was 9560 fluorescence intensity (a.u.).
